Here are results for 41 compounds from PubChem BioAssay AID493014 (National Center for Advancing Translational Sciences (NCATS), 2011).

One may read the AC50 as the concentration giving half of the maximal activity seen.

Each structure is given as a SMILES string. The list shows a part of the results. The main result of the screen is listed elsewhere. These columns were measured beside it and carry no call. Compounds called inactive in the main read-out are mostly missing here. The note in brackets gives the kind of curve behind each potency; many fits are weak.

The test can be described thus: qHTS Assay to Find Inhibitors of Chronic Active B-Cell Receptor Signaling. The note with it: ABC-DLBCL IkBa-CBG/CBR reporter, luminescence ratio (green luciferase fused to IkBa over red control in TMD8 lymphoma cells), 4 h. Put shortly: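 Compounds up to 46 uM were incubated four hours with TMD8 cells whose green CBG68 luciferase is fused to IkappaBalpha; red CBR luminescence normalised the signal, and concentration-effect curves were fitted to fusion, red and ratio data.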
(In general: qHTS replaces the single test concentration by a dilution series.)

The mark [1] stands for this setting: measured here: CBR red luminescence, cell number.
Where [2] appears, read: measured here: IkBa-CBG green luminescence.

As to `CCNc1nc(NCC)nc(SCCOc2ccc(C)cc2)n1`, the AC50 under setting [1] was 29.1 µM [falling, single point].

Consider `Cc1cc(C)n2nc(CCc3nc4nc(C)cc(C)n4n3)nc2n1`, for which, under setting [1], the concentration at half-maximal activity (AC50) was 6.31 µM [rising, single point]. Same read-out and setting: for `O=C(N/N=C/C1CC2CCC1C2)c1c[nH]c2ccccc12` (configuration not stated) the value was 22.4 µM [falling, single point]. For the compound `O=C(Nc1cc(=O)[nH]c2nc(-c3ccc(Cl)cc3)nn12)c1ccccc1`, under setting [1], the AC50 is 7.08 µM [falling, partial curve]. The same measure, in the same setting: for `NC(=O)C1CC(=O)N(c2ccc(OCc3ccc(Cl)cc3)cc2)C1` (configuration not stated) the value was 3.98 µM [rising, full curve]. Same read-out and setting: next, `O=[N+]([O-])c1ccc(C2CN=C(Nc3ccccc3)S2)cc1` (configuration not stated): 20 µM [falling, partial curve]; `COc1ccccc1/C=C1\SC(=S)N(CCC(=O)Nc2cc(C)on2)C1=O`: 2.24 µM [falling, full curve]; `CN1CCN(c2ccccc2NC(=O)COc2ccc(Cl)cc2)CC1`: 5.62 µM [rising, partial curve, poor fit]. On the same count and under the same terms, next, `O=C(Nc1ccc(F)c(Cl)c1)Nc1ccc(Cl)cn1`: 0.794 µM [rising, full curve, poor fit]; `CCOC(=O)C1=C(C)OC(N)=C(C#N)C1c1cccs1` (configuration not stated): 35.5 µM [falling, single point]. In the case of `COc1cccc(-c2nc(-c3ccccc3)no2)c1`, the concentration at half-maximal activity (AC50) under setting [1] is 23.1 µM [falling, single point]. With `COc1ccc(Nc2cc(C(=O)NCCCN3CCN(c4ccc(OC)cc4)CC3)c3ccccc3n2)cc1`, the AC50 is 12.6 µM [falling, single point] under setting [1] and 4.47 µM [rising, partial curve, poor fit] under setting [2].

Regarding `COc1cc(Cl)ccc1S(=O)(=O)n1nc(C)cc1C`, under setting [1], the AC50 was 6.51 µM [falling, single point]. `Cc1ccc(S(C)(=O)=N/C=C2\C(=O)c3sccc3N(C)S2(=O)=O)cc1` (configuration not stated): under setting [1], the AC50 is 12.6 µM [rising, partial curve, poor fit]. The same measure, in the same setting: for `COc1cccc(CCNC(=O)c2cccc(NC(=O)C3=C(C)OCCS3)c2)c1` the value was 7.94 µM [falling, partial curve]; for `COc1ccc2cc(C#N)c(SCC(=O)N3CC(=O)Nc4ccccc43)nc2c1`, 11.2 µM [falling, partial curve, poor fit]; for `O=C(CCn1cnnn1)Nc1ccc(F)cc1`, 1.12 µM [falling, partial curve, poor fit]. Same read-out and setting: for `C[C@@H]1CN([C@@H](C)CO)C(=O)Cc2cc(NC(=O)Nc3cccc4ccccc34)ccc2O[C@@H]1CN(C)Cc1ccc(C(F)(F)F)cc1` the value was 14.6 µM [falling, single point]; for `Cc1ccc(-c2nc3cccnc3s2)cc1NC(=O)C1c2ccccc2Oc2ccccc21`, 13 µM [rising, partial curve]. As to `O=C(COC(=O)CC12CC3CC(CC(Br)(C3)C1)C2)NC(=O)NCc1ccco1`, the AC50 under setting [1] was 0.501 µM [rising, full curve, poor fit]. As to `CCOc1ccc(CCNC(=O)CN2C(=O)NC(CCSC)C2=O)cc1OCC` (configuration not stated), the AC50 under setting [1] was 7.94 µM [rising, partial curve, poor fit].

Take `Cc1nnc(N/N=C/C(C)c2ccccc2)[nH]c1=O` (configuration not stated): the AC50 under setting [1] is 1.41 µM [rising, partial curve, poor fit]. The same measure, in the same setting: next, `Cc1scc(C(=O)N/N=C/c2ccc([N+](=O)[O-])o2)c1C`: 0.562 µM [falling, full curve, poor fit]; `CCCc1nc2c(=O)n(C)c(=O)nc-2n(C)n1`: 10 µM [falling, partial curve, poor fit]; `O=C(c1ccco1)N1CCN(C(=O)c2ccc(COc3ccc4c(c3)CCC4)o2)CC1`: 10 µM [falling, partial curve, poor fit]. Consider `CCOC(=O)CSc1[nH]c(=O)cc(C)c1C#N`, for which the AC50 under setting [1] was 0.517 µM [falling, full curve, poor fit]. For `O=C(Nc1ccc(Br)c(C(F)(F)F)c1)c1ccccc1`, the half-maximal activity concentration (AC50) under setting [2] was 29.1 µM [rising, partial curve, poor fit]. Turning to `Clc1ccc(/C=N/Nc2ncnc3ccccc23)cc1Cl`, the AC50 under setting [1] is 14.1 µM [falling, partial curve]. In the case of `CCS(=O)(=O)c1ccc2c(c1)NC(=O)C(CCCl)O2` (configuration not stated), the AC50 under setting [1] is 35.5 µM [rising, single point]. For `CC1=NN(C(=O)c2csc(C(C)C)c2)C(O)(C(F)(F)F)C1` (configuration not stated), under setting [1], the AC50 is 6.51 µM [falling, single point]. The same measure, in the same setting: next, `COc1ccc(C(=O)NC(C(=O)N2CCc3ccccc32)C(C)C)cc1` (configuration not stated): 3.66 µM [rising, full curve]; `O=c1[nH]c(CN2CCN(S(=O)(=O)c3ccc(Cl)cc3)CC2)nc2cc(Cl)ccc12`: 16.4 µM [rising, partial curve, poor fit]. On the same count and under the same terms, for `Cc1ccc2oc(-c3cccc(NC(=O)c4cc(-n5cnnc5)ccc4Cl)c3)nc2c1` the value was 2.91 µM [falling, full curve].

As to `O=C(O)CCCC(=O)Nc1cccc(C(=O)Nc2ccccc2C(=O)O)c1`, the AC50 under setting [1] was 12.6 µM [falling, partial curve]. On the same count and under the same terms, next, `C=C(C)CSc1nc2nc(C)cc(C)n2n1`: 11.6 µM [rising, partial curve, poor fit]; `CCc1ccc(NC(=O)CCn2nc(C)c(S(=O)(=O)N3CCCCC3)c2C)cc1`: 17.8 µM [falling, single point]; `CCCOC(=O)CSC1=C(C#N)C(c2ccccc2Cl)CC(=O)N1` (configuration not stated): 6.51 µM [rising, single point].

`O=C(CSc1nnc(-c2ccc(F)cc2)o1)c1ccc2c(c1)OCCO2`: the AC50 under setting [1] is 0.731 µM [falling, partial curve, poor fit].

For `Cc1ccc(N=C2NC(=O)/C(=C/c3cccn3C)S2)c(C)c1`, the AC50 under setting [1] is 7.94 µM [falling, partial curve, poor fit]. For the compound `O=C(N/N=C/c1ccccn1)c1cccs1`, the AC50 under setting [1] was 20 µM [falling, partial curve, poor fit]. Still for that read-out and setting: for `CCn1c2ccccc2c2cc(NC(=O)COC(=O)Cc3cn4ccsc4n3)ccc21` the value was 22.4 µM [rising, single point].
